Record: PubChem BioAssay AID602196 (INSERM, 2012)

Aim: 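Genes whose knock-down alters cisplatin killing of lung cancer cells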
Cell system: human A549 lung cancer cells
Reagent: siRNA pair against human genes
Duration: 48 h transfection before cisplatin; time from cisplatin to read-out not stated
Challenge: cisplatin at a dose killing half of control-siRNA cells; exact dose and duration not given
Detection: 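Shift in cisplatin death relative to control siRNA, from -50 (all cells die) to +50 (no cells die); siRNAs harmful on their own scored 0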
Reading the numbers: two-siRNA summed score (-2 to +2): higher = both siRNAs protect from cisplatin killing; -2 means both sensitise
Rule for the call: 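siRNAs harmful alone (LDH or WST-1) get 0; others get +1 for less and -1 for more cisplatin killing; genes are active when the two siRNAs give the same sign, summing to ±2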
Calls: active = both siRNAs shift cisplatin killing the same way; inactive = no consistent shift, or siRNA harmful alone
Here is a random part of about 23,000 reagents. Over the whole deposit, 455 (2%) got an active call. 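Active includes both protection and sensitisation; some change values fall well beyond the stated -50 to +50 range.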 Unmarked entries are inactive. Not all columns of the deposit are shown. No sequences are given here. The record does not give: the amount of reagent.

Knock-down of GPR39 (GeneID 2863) resulted in: two-siRNA summed score (-2 to +2) = 0.
GLO1 (GeneID 2739) scored two-siRNA summed score (-2 to +2) = -1.
After knock-down of WARS2 (GeneID 10352), the record shows two-siRNA summed score (-2 to +2) = -1.
With knock-down of FRMD7 (GeneID 90167), the record shows two-siRNA summed score (-2 to +2) = 0.
Against METTL26 (GeneID 84326) the deposit lists two-siRNA summed score (-2 to +2) = 0.
Against FAM120C (GeneID 54954) the deposit lists two-siRNA summed score (-2 to +2) = 0.
For CENPU (GeneID 79682) the deposit lists two-siRNA summed score (-2 to +2) = 0.
For SYNE1 (GeneID 23345), the values are two-siRNA summed score (-2 to +2) = -1.
Silencing of DAZL (GeneID 1618) gave: two-siRNA summed score (-2 to +2) = 0.
After knock-down of HBE1 (GeneID 3046) the results were two-siRNA summed score (-2 to +2) = 0.
LOC388254 gave two-siRNA summed score (-2 to +2) = 0.
Silencing of PRKN (GeneID 5071) resulted in: two-siRNA summed score (-2 to +2) = 0.
With knock-down of TFAP2A (GeneID 7020), the record shows two-siRNA summed score (-2 to +2) = 0.
For ENY2 (GeneID 56943), the entry reads two-siRNA summed score (-2 to +2) = -1.
Against AP3S2 (GeneID 10239), the entry reads two-siRNA summed score (-2 to +2) = 0.
After knock-down of LOC440318, the screen gave two-siRNA summed score (-2 to +2) = 0.
Against LINC00900 (GeneID 283143), the entry reads two-siRNA summed score (-2 to +2) = 0.

4 of these entries, set out differently.
| gene | two-siRNA summed score (-2 to +2) |
| --- | --- |
| PRKN (GeneID 5071) | 0 |
| TFAP2A (GeneID 7020) | 0 |
| ENY2 (GeneID 56943) | -1 |
| AP3S2 (GeneID 10239) | 0 |

Additional records:
OR4Q3 (GeneID 441669) scored two-siRNA summed score (-2 to +2) = 1.
With knock-down of ECH1 (GeneID 1891), the screen gave two-siRNA summed score (-2 to +2) = 2 (active).
With knock-down of CNNM3 (GeneID 26505) the results were two-siRNA summed score (-2 to +2) = -1.
After knock-down of NBEA (GeneID 26960), the record shows two-siRNA summed score (-2 to +2) = -1.
After knock-down of UGT2A3 (GeneID 79799), the record shows two-siRNA summed score (-2 to +2) = 0.
Knock-down of GNAI1 (GeneID 2770) gave: two-siRNA summed score (-2 to +2) = 0.
Against RFX8 (GeneID 731220), the values are two-siRNA summed score (-2 to +2) = 0.
ENTREP3 (GeneID 10712) gave two-siRNA summed score (-2 to +2) = 0.
For NT5C (GeneID 30833) the deposit lists two-siRNA summed score (-2 to +2) = 0.
ZNF621 (GeneID 285268) gave two-siRNA summed score (-2 to +2) = 1.
With knock-down of CLK3 (GeneID 1198), the screen gave two-siRNA summed score (-2 to +2) = 1.
With knock-down of XPO6 (GeneID 23214), the record shows two-siRNA summed score (-2 to +2) = 0.
For BKGD (GeneID 28970), the entry reads two-siRNA summed score (-2 to +2) = 0.
Knock-down of ADA2 (GeneID 51816) resulted in: two-siRNA summed score (-2 to +2) = 0.
